Results reported in BindingDB's records for doi:10.1016/j.bmcl.2006.05.060 (University of Kentucky, 2006).

Assay: Displacement of radiolabeled NalBzOH from kappa3 opioid receptor in Hartley guinea pig brain

`CN1CC[C@]23c4c5ccc(O)c4O[C@H]2[C@@H](O)C=C[C@H]3[C@H]1C5` gave a Ki of 14 nM.
